PubChem BioAssay AID624150 – Cancer Research UK Cambridge, 2012
Purpose: 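Effect of silencing chromatin genes on per-cell differentiation marker amount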 (primary screen). Cells: primary human epidermal keratinocytes. Knock-down reagent: siRNA pool against human genes, 1-2 µM siRNA in 20 µl nucleofection. Duration: 72 h after transfection plus 48 h differentiation (about 5 days). Treatment: five arms for 48 h: vehicle, AG1478 10 µM, BMP2/7 200 ng/ml, both together, or 10% serum. Measured: 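Transglutaminase 1 immunostaining divided by DNA staining in each well, background removed, then z-scored versus every test siRNA on that plate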. Scale: z-score, vehicle and z-score, AG1478 10 µM: higher = more differentiation marker per cell.
Here is one part, drawn at random, of 331 reagents tested. 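Each arm had three replicate z-scores, but only the first replicate is printed; higher values mean more differentiation marker per cell.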 Further read-outs or replicates are left out here.

For MBD3L1 (methyl-CpG binding domain protein 3 like 1), the values are z-score, vehicle -0.226; z-score, AG1478 10 µM -0.676.
With knock-down of BRD3 (bromodomain containing 3) the results were z-score, vehicle 0.0107; z-score, AG1478 10 µM 0.23.
Against ATRX (ATRX chromatin remodeler) the deposit lists z-score, vehicle 1.08; z-score, AG1478 10 µM 1.93.
With knock-down of KAT6A (lysine acetyltransferase 6A), the screen gave z-score, vehicle 0.715; z-score, AG1478 10 µM -0.464.
For PHF24 (PHD finger protein 24), the values are z-score, vehicle 0.803; z-score, AG1478 10 µM 0.224.
Against KDM1A (lysine demethylase 1A), the values are z-score, vehicle 0.687; z-score, AG1478 10 µM 2.49.
CHAF1A (chromatin assembly factor 1 subunit A) gave z-score, vehicle -1.08; z-score, AG1478 10 µM 0.338.
KDM6A (lysine demethylase 6A) gave z-score, vehicle 0.349; z-score, AG1478 10 µM 2.54.
With knock-down of TRDMT1 (tRNA aspartic acid methyltransferase 1), the record shows z-score, vehicle 0.661; z-score, AG1478 10 µM 0.438.
With knock-down of PRDM7 (PR/SET domain 7), the record shows z-score, vehicle -1.01; z-score, AG1478 10 µM -0.459.
For INTS12 (integrator complex subunit 12) the deposit lists z-score, vehicle 0.258; z-score, AG1478 10 µM -0.388.
Against TAF1L (TATA-box binding protein associated factor 1 like), the values are z-score, vehicle 0.218; z-score, AG1478 10 µM 1.29.
Knock-down of SCML2 (Scm polycomb group protein like 2) resulted in: z-score, vehicle 0.616; z-score, AG1478 10 µM -0.544.
Silencing of BAHD1 (bromo adjacent homology domain containing 1) resulted in: z-score, vehicle 1.05; z-score, AG1478 10 µM 0.728.
For HDAC1 (histone deacetylase 1), the entry reads z-score, vehicle 0.348; z-score, AG1478 10 µM 0.753.
MBD4 (methyl-CpG binding domain 4, DNA glycosylase) gave z-score, vehicle 0.512; z-score, AG1478 10 µM 0.33.
For SMYD4 (SET and MYND domain containing 4), the entry reads z-score, vehicle 0.585; z-score, AG1478 10 µM 1.66.
JMJD4 (jumonji domain containing 4) showed z-score, vehicle 1.19; z-score, AG1478 10 µM 1.49.
MSL3 (MSL complex subunit 3) scored z-score, vehicle -0.516; z-score, AG1478 10 µM -0.862.
TAF3 (TATA-box binding protein associated factor 3) showed z-score, vehicle -0.177; z-score, AG1478 10 µM -0.458.
After knock-down of PRDM12 (PR/SET domain 12), the record shows z-score, vehicle -0.241; z-score, AG1478 10 µM 0.331.
Knock-down of CDYL2 (chromodomain Y like 2) resulted in: z-score, vehicle 0.529; z-score, AG1478 10 µM 0.645.
With knock-down of CYP11A1 (cytochrome P450 family 11 subfamily A member 1), the screen gave z-score, vehicle -0.572; z-score, AG1478 10 µM -0.379.
KDM2A (lysine demethylase 2A) showed z-score, vehicle -0.516; z-score, AG1478 10 µM -0.911.
Silencing of SIRT7 (sirtuin 7) gave: z-score, vehicle -0.976; z-score, AG1478 10 µM -1.3.
With knock-down of CBX8 (chromobox 8) the results were z-score, vehicle 1.01; z-score, AG1478 10 µM 1.06.
For EP300 (EP300 lysine acetyltransferase) the deposit lists z-score, vehicle 1.34; z-score, AG1478 10 µM 0.47.
Silencing of PHF21B (PHD finger protein 21B) came out at: z-score, vehicle -0.295; z-score, AG1478 10 µM 0.318.

As entered above:
TRDMT1 (tRNA aspartic acid methyltransferase 1), z-score, vehicle: 0.661
PHF21B (PHD finger protein 21B), z-score, vehicle → -0.295
KDM6A (lysine demethylase 6A), z-score, vehicle → 0.349
